Reference: PubChem BioAssay AID1259291 (Sanger Institute, 2017)

Purpose: 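Find kinase and colorectal-cancer-mutated genes whose loss kills HT29 cells or aids anchor drugs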 (primary screen)
Cell system: HT29 human colorectal cancer cells
Knock-down reagent: siRNA pool against human genes
Conditions: anchor drugs added a day after transfection: BYL719 at 1 µM, cetuximab at 5 µg/ml or trametinib at 10 nM, or DMSO vehicle alone
Measurement: 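Replicate-averaged viability relative to non-targeting pool, robust z-score based on control wells, plus per-drug synergy score for 1 µM BYL719, 5 µg/ml cetuximab and 10 nM trametinib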
Scale: robust z-score, knock-down alone and viability, knock-down alone: higher = more viable cells; synergy score with BYL719 and synergy score with cetuximab: higher = stronger synergistic killing with drug
Rule for the call: 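Essential when the robust z-score for knock-down without any drug is below -3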
Meaning of the calls: active = essential (knock-down alone); inactive = no change alone
The deposit covers 794 reagents; below is an unselected part. Of all reagents, 15 (1.9%) are marked active. 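Calls rest on knock-down alone; drug synergy scores do not affect them; drugs added a day post-transfection, DMSO vehicle as comparison.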 Unmarked entries are inactive. No viability above 1 is reported: the scale is capped. Not all columns of the deposit are shown. No sequences are given here. The record does not give: the amount of reagent, the time to read-out.

The first 4 entries, ahead of the listing:
gene knocked down	robust z-score, knock-down alone	viability, knock-down alone (fraction of control)	synergy score with BYL719	synergy score with cetuximab
TPK1 (GeneID 27010)	-4 (active)	0.718	-0.136	-0.14
TRIB2 (GeneID 28951)	-1.9	0.848	-0.036	-0.108
MYLK (GeneID 4638)	0.552	1	-0.0304	0.0181
MUSK (GeneID 4593)	-0.97	0.906	-0.132	-0.0261

The listing, from the first entry:
gene knocked down	robust z-score, knock-down alone	viability, knock-down alone (fraction of control)	synergy score with BYL719	synergy score with cetuximab
TPK1 (GeneID 27010)	-4 (active)	0.718	-0.136	-0.14
TRIB2 (GeneID 28951)	-1.9	0.848	-0.036	-0.108
MYLK (GeneID 4638)	0.552	1	-0.0304	0.0181
MUSK (GeneID 4593)	-0.97	0.906	-0.132	-0.0261
PIK3R5 (GeneID 23533)	-1.37	0.881	-0.207	0.00644
PIP4K2A (GeneID 5305)	0.552	1	-0.00765	0.0825
CDC42BPA (GeneID 8476)	0.552	1	0.12	0.0403
OBSCN (GeneID 84033)	0.552	1	-0.0921	0
TNK1 (GeneID 8711)	0.113	0.973	-0.0573	0.0978
TBK1 (GeneID 29110)	0.552	1	-0.0586	0
PRKAR2A (GeneID 5576)	0.0243	0.967	-0.017	-0.0328
GUCY2F (GeneID 2986)	0.552	1	-0.0749	0.0491
SNRK (GeneID 54861)	0.552	1	-0.148	0
RBM10 (GeneID 8241)	-0.177	0.955	0.117	-0.0453
CDK19 (GeneID 23097)	-0.164	0.956	-0.00293	0.0233
KMT2B (GeneID 9757)	-1.57	0.868	0.144	-0.038
FER (GeneID 2241)	-0.443	0.938	-0.119	-0.024
PIKFYVE (GeneID 200576)	0.552	1	-0.148	0.0218
JAK2 (GeneID 3717)	-5.73 (active)	0.611	-0.116	-0.136
MARK2 (GeneID 2011)	-3.17 (active)	0.769	-0.0955	-0.0497
BRDT (GeneID 676)	0.552	1	-0.0686	0.0784
PRKAG2 (GeneID 51422)	0.552	1	-0.0333	0
HCK (GeneID 3055)	0.552	1	-0.0603	0
N4BP2 (GeneID 55728)	-0.213	0.953	-0.0732	-0.0475
PRKDC (GeneID 5591)	0.0113	0.966	0.12	0.0474
CLK2 (GeneID 1196)	0.552	1	0.0832	0
DDR2 (GeneID 4921)	0.218	0.979	0.0298	0.0921
PRKD2 (GeneID 25865)	0.411	0.991	0.0589	0.112
TSSK3 (GeneID 81629)	0.552	1	-0.0841	0
BCR (GeneID 613)	0.552	1	0.12	0.0288
MSR1 (GeneID 4481)	-0.0819	0.961	-0.0862	-0.0361
MAPK12 (GeneID 6300)	-2.46	0.813	-0.228	-0.089
PDGFRL (GeneID 5157)	0.552	1	0.0905	0.0966
SCYL1 (GeneID 57410)	0.431	0.992	-0.0506	0.0497
MPP2 (GeneID 4355)	0.552	1	0.0132	0
GCK (GeneID 2645)	0.552	1	0.159	0.296
ATM (GeneID 472)	-2.47	0.813	-0.0316	-0.0727
PAK6 (GeneID 56924)	0.552	1	-0.00863	0.0149
EPHA1 (GeneID 2041)	0.552	1	-0.0629	0
NME1 (GeneID 4830)	0.552	1	-0.158	0.0148
NME5 (GeneID 8382)	0.552	1	-0.0471	0.0092
YES1 (GeneID 7525)	0.552	1	0.171	0
BMPR1B (GeneID 658)	0.552	1	0.0607	0.0458
PRKACB (GeneID 5567)	-0.0664	0.962	-0.0483	0.0155
IP6K1 (GeneID 9807)	0.552	1	-0.134	0.0329
DGKK (GeneID 139189)	0.167	0.976	0.0744	-0.0239
PDK1 (GeneID 5163)	0.552	1	0.119	0.0597
KDR (GeneID 3791)	0.552	1	-0.0927	0
PRKAR2B (GeneID 5577)	-1.67	0.862	-0.0698	-0.0939
PAPSS2 (GeneID 9060)	0.552	1	-0.0654	0.0442
